From PubChem BioAssay AID2685 (National Center for Advancing Translational Sciences (NCATS), 2010)
This is one part of the list. These are further read-outs of the screen, such as a control signal, another cell line or another target. No call is given for them. Compounds called inactive in the main read-out are mostly missing here. The note in brackets gives the kind of curve behind each potency; many fits are weak.

Assay: qHTS Assay for Lipid Storage Modulators in Drosophila S3 Cells;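 on cell number change: cells counted by Cell Tracker Red CMTPX staining in the red channel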
Conditions: BODIPY lipid droplet fluorescence, 18-24 h; for cell number change: measured here: cell count max response, cells fed with added oleic acid
Procedure, shortened: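 Drosophila S3 cells loaded with oleic acid (400 uM, as added) and compounds at several concentrations; lipid droplets imaged by 488-nm laser-scanning cytometry, 500–530 nm intensity and object ratio to cell channel. Percent activity normalized to 20 uM Triacsin C.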

[1] = measured here: cell number channel AC50, cells fed with added oleic acid
[2] = measured here: lipid fluorescence (Fed channel) AC50, cells fed with added oleic acid

| SMILES | cell number change [%] | AC50 [1] | AC50 [2] |
| --- | --- | --- | --- |
| Cc1ccc(-c2nnc(CSc3nnc(C)s3)o2)cc1 | -0.14 | – | – |
| Cc1ccc(NC(=O)c2ccc3nc[nH]c3c2)nc1 | -2.16 | – | – |
| COc1cccc(/C=C2\SC(=O)N(CCC(=O)NC3CCS(=O)(=O)C3)C2=O)c1 (stereo not given) | -1.18 | 6.51 µM [falling, single point] | – |
| CCN(CC)S(=O)(=O)c1ccc(S(=O)(=O)NCC2CCCO2)cc1 (stereo not given) | 15.5 | – | – |
| Cc1cccc2[nH]c3c(N4CCC5(CC4)OCCO5)ncnc3c12 | -32.9 | 1.46 µM [falling, partial curve, poor fit] | 11.6 µM [falling, partial curve] |
| O=C(Nc1ccccc1)OCCNC(=O)c1cccc(Br)c1 | -18.2 | – | 16.4 µM [falling, single point] |
| Cc1nc2nc(-c3cccnc3)nn2c(C)c1Cl | – | 2.91 µM [rising, partial curve] | 2.06 µM [rising, full curve] |
| COc1ccc(C2CC(c3ccccc3)=NN2C(=O)CSc2ncn[nH]2)cc1 (stereo not given) | 38.8 | 0.0517 µM [rising, full curve, poor fit] | – |
| COc1ccc(-n2nc(C(=O)N3CCN(Cc4ccc5c(c4)OCO5)CC3)c3ccccc3c2=O)cc1 | 23.1 | – | 8.2 µM [rising, partial curve] |
| COc1ccc(-n2nnc3c(=O)n(Cc4ccccc4C)cnc32)cc1 | -1.35 | – | 36.6 µM [falling, partial curve, poor fit] |
| COc1ccc(NC(=O)CS(=O)(=O)c2ccccc2)cc1 | 29.1 | 4.11 µM [rising, full curve, poor fit] | 29.1 µM [rising, single point] |
| Cc1nnc(SCC(=O)Nc2cccc(S(=O)(=O)NC3=NCCCCC3)c2)n1Cc1ccccc1 | 40 | 0.00651 µM [rising, full curve] | – |
| Cc1ccc(CNC(=O)C2CCN(S(=O)(=O)c3cnc[nH]3)CC2)cc1 | -16.8 | 0.731 µM [falling, full curve] | – |
| Cc1cc2c(cc1C)NC1=C(N2)OC(c2cccc(O)c2)C1=O (stereo not given) | -2.73 | – | 0.0326 µM [rising, full curve, poor fit] |
| CC(C)CN(C(=O)COC(=O)CCC(=O)c1ccc(Cl)cc1)c1c(N)n(Cc2ccccc2)c(=O)[nH]c1=O | -42 | 18.4 µM [falling, partial curve] | – |
| Cc1c(Cl)cccc1NC(=O)CSC(N)=O | -6.99 | – | 7.31 µM [falling, partial curve, poor fit] |
| COC(=O)C(CC(=O)c1ccc(C)cc1)n1cccn1 (stereo not given) | 25.3 | – | 29.1 µM [rising, single point] |
| CCOC(=O)c1cnc(SCC(=O)OCC(=O)N(CC)C2CCS(=O)(=O)C2)nc1N (stereo not given) | -50 | 29.1 µM [falling, single point] | 13 µM [rising, partial curve] |
| CCOC(=O)c1[nH]c2ccccc2c1NC(=O)CN1CCCCC1 | -13.1 | – | 6.51 µM [falling, single point] |
| CCCc1ccc(C(=O)CN2C(=O)C(=O)N(C3CCCC3)C2=O)cc1 | 13.8 | – | – |
| CCN1CCN(c2nnc(-c3ccccc3)c3ccccc23)CC1 | 37.8 | – | 6.51 µM [rising, single point] |
| Cc1cccc(NC(=O)[C@@H](CC(C)C)NC(=O)[C@@H]2Cc3ccccc3CN2)c1 | 17.9 | – | 0.58 µM [falling, single point] |

| SMILES | cell number change [%] | AC50 [1] | AC50 [2] |
| --- | --- | --- | --- |
| CCOC(=O)N1CCC(NC(=O)c2cc(S(=O)(=O)N3CCc4ccccc43)cn2C)CC1 | -4.46 | – | 2.59 µM [rising, full curve, poor fit] |
| COc1ccc(C(=O)NC(=S)N2CCCCC2)cc1[N+](=O)[O-] | 19.6 | – | – |
| COc1ccc(/C=N/NC(=O)c2ccc(COc3ccccc3Cl)o2)cc1 | 6.83 | – | – |
| CC(C)(C)NC(=O)COc1ccc(CNCCc2ccccc2)cc1 | 15.1 | – | 23.1 µM [rising, single point] |
| O=C1c2oc3ccc(Br)cc3c(=O)c2C(c2cccc(F)c2)N1CCO (stereo not given) | 2.08 | – | 29.1 µM [falling, single point] |
| COc1cc(-c2c(-c3ccc4c(c3)OCO4)noc2C)ccc1F | 21 | – | – |
| O=[N+]([O-])c1ccc(-c2cn3nc(-c4ccccc4)c(-c4ccccc4)nc3n2)cc1 | -9.24 | 6.51 µM [falling, single point] | 3.66 µM [falling, full curve, poor fit] |
| Cc1ccc(NC2CCCN(C(=O)C3CCCCC3)C2)cc1C (stereo not given) | -16.6 | – | 5.01 µM [falling, partial curve] |
| CC(OC(=O)C1CCCCC1)C(=O)Nc1cccc(Cl)c1 (stereo not given) | -0.855 | 3.26 µM [falling, single point] | – |
| CSc1ccccc1NC(=O)CN(C)Cc1c(O)ccc2ccccc12 | -4.84 | – | – |
| COc1ccccc1NC(=O)/C(=C\c1cccnc1)NC(=O)c1ccc(C)cc1 | 15.7 | – | 6.51 µM [rising, single point] |
| Cc1c(Cl)cnc(NC(=O)CSc2nnc(C)n2Cc2ccccc2)c1Cl | 13.1 | 2.91 µM [rising, single point] | – |
| Cc1ccc(S(=O)(=O)N2CCN(C)CC2c2ccccc2)cc1 (stereo not given) | -20.9 | – | – |
| Cc1ccccc1C(=O)Nc1cccc(C(=O)N/N=C/c2ccccn2)c1 | 7.91 | – | – |
| COc1ccc(Cl)cc1NC(=S)N(CCCN1CCOCC1)Cc1cn(C)c2ccccc12 | -2.11 | – | – |
| Cc1ccc(-c2nc(C(Cl)Cl)c3ccccc3n2)cc1 | -23.8 | – | – |
| COc1ccc(S(=O)(=O)N2CC(=O)Nc3ccccc32)cc1C | -0.276 | – | 20.6 µM [falling, single point] |
| CCOc1ccc(NC(=O)C(=O)N/N=C/c2ccccc2F)cc1 | 35.3 | 29.1 µM [rising, single point] | – |
| C=CCOn1c(=O)c(-c2ccc(F)cc2)[n+]([O-])c2ccccc21 | 1.39 | 6.51 µM [rising, single point] | – |
| CCCCNC(=O)COC(=O)c1c2c(nc3ccccc13)/C(=C/c1cccs1)CC2 | – | 0.00411 µM [rising, full curve, poor fit] | 0.731 µM [falling, full curve] |
| O=C(CN(Cc1ccc2c(c1)OCO2)C(=O)CNC(=O)c1ccco1)NC1CCCCC1 | -19.6 | – | – |
| COc1ccc(S(=O)(=O)N(C)Cc2cccs2)cc1Br | 44.4 | 20.6 µM [rising, partial curve] | – |

| SMILES | cell number change [%] | AC50 [1] | AC50 [2] |
| --- | --- | --- | --- |
| O=C(CCCCCN1C(=O)CCC1=O)Nc1ccc2c(c1)OCO2 | – | 1.84 µM [rising, partial curve] | 2.06 µM [rising, partial curve] |
| CCOc1ccc2oc(C(=O)O)c(C)c2c1 | -9.03 | – | 0.00517 µM [falling, full curve, poor fit] |
| Cc1ccc(NC(=O)CNCc2ccccn2)cc1S(=O)(=O)N(C)C | – | 0.00517 µM [rising, full curve, poor fit] | – |
| O=C(N/N=C/c1ccccc1OCc1ccccc1Cl)c1cccnc1 | -27.3 | 0.0366 µM [falling, full curve, poor fit] | 6.51 µM [falling, single point] |
| Cc1ccc(N(C(=O)CCC(=O)Nc2cc(C)on2)C(C(=O)NC2CCCC2)c2cccs2)cc1 (stereo not given) | 10.4 | – | 3.66 µM [rising, partial curve] |
| S=C1NC2(CCCCC2)Nc2ccccc21 | 9.9 | – | – |
| Cc1ccc(NC2c3ccccc3C(=O)N2CCN2CCOCC2)cc1 (stereo not given) | – | – | 32.6 µM [rising, partial curve, poor fit] |
| CCn1c(-c2cccnc2Cl)nc2cc(C)c(C)cc21 | 48.5 | 14.6 µM [rising, partial curve, poor fit] | – |
| Cc1cc(C)nc(NS(=O)(=O)c2ccc(NC(=O)c3ccccc3[N+](=O)[O-])cc2)n1 | 19 | – | 29.1 µM [rising, single point] |
| COc1ccc(NC(=O)C23CCC(C2)C(C)(C)C3=O)cc1 (stereo not given) | -15.8 | – | 29.1 µM [rising, single point] |
| COc1cc(C2C3=C(CCCC3=O)OC3=C2C(=O)CCC3)ccc1OCC(=O)Nc1ccccc1 | – | 0.82 µM [falling, full curve] | – |
| CCCCOc1ccccc1C1C(C(N)=O)=C(C)Nc2nnnn21 (stereo not given) | 7.44 | – | 29.1 µM [rising, single point] |
| O=C(CSCc1ccc(Cl)cc1)NN=C1CCCCCC1 | 13.2 | – | 1.84 µM [rising, full curve, poor fit] |
| CCOc1ccc(NC(=O)CN(C)C(=O)C2CCN(c3ncnc4sc(C)c(C)c34)CC2)cc1OCC | -29.8 | – | – |
| Cc1ccccc1NC(=O)c1ccc(NC(=O)C2CCCO2)cc1 (stereo not given) | 5.13 | – | – |
| O=C(NCCCc1ccccc1)C(=O)c1c[nH]c2ccccc12 | 49.6 | 5.8 µM [rising, partial curve] | 11.6 µM [rising, single point] |
| Cc1ccc(NC(=O)COC(=O)C2=NN(c3ccccc3)C(=O)CC2)c(Br)c1 | 16.5 | 3.26 µM [rising, partial curve, poor fit] | 0.231 µM [rising, full curve, poor fit] |
| Nc1nnc(Cc2c[nH]c3ccccc23)s1 | -19.1 | – | 29.1 µM [rising, single point] |
| CN(C)c1ccc(C(CNC(=O)Cc2cccc3ccccc23)N(C)C)cc1 (stereo not given) | 18 | – | – |
| Nc1nc(NCCCN2CCOCC2)nc(Nc2ccccc2)c1[N+](=O)[O-] | 80.5 | 3.66 µM [falling, single point] | – |

Part of the list above in order of length of the SMILES, falling:

| SMILES | cell number change [%] | AC50 [1] | AC50 [2] |
| --- | --- | --- | --- |
| Cc1ccc(NC(=O)CNCc2ccccn2)cc1S(=O)(=O)N(C)C | – | 0.00517 µM [rising, full curve, poor fit] | – |
| CCCCOc1ccccc1C1C(C(N)=O)=C(C)Nc2nnnn21 (stereo not given) | 7.44 | – | 29.1 µM [rising, single point] |
| Nc1nnc(Cc2c[nH]c3ccccc23)s1 | -19.1 | – | 29.1 µM [rising, single point] |

Part of the list above, reduced to cell number change [%]:
SMILES,cell number change [%]
O=C(NCCCc1ccccc1)C(=O)c1c[nH]c2ccccc12,49.6
Cc1ccc(NC(=O)COC(=O)C2=NN(c3ccccc3)C(=O)CC2)c(Br)c1,16.5
